# Measured values as given in PubChem BioAssay AID624297 (National Center for Advancing Translational Sciences (NCATS), 2012).
# The campaign covered roughly 340,000 compounds. About 6,200 (1.8%) were called active. This list was built around the results that the source calls inconclusive (neither active nor inactive); the mix of calls is not that of the screen. Calls come from the whole dose curve; as a rule, active = well fitted activation curve with a large enough effect; inconclusive = small, poorly fitted or top-dose-only effect; inactive = no such curve, though single readings can be large or run the other way. Where the call is inconclusive, the potency comes from a doubtful curve fit.
# Assay: A quantitative high throughput screen for small molecules that induce DNA re-replication in SW480 colon adenocarcinoma cells. For re-replication activation: % of control where 0% means no effect. Note: nearly all actives have a fitted effect of over 55% in size.
# Conditions: Hoechst DNA content imaging, 48 h; re-replication activation: at 46.1 µM (top of the series) unless noted
# Method in brief: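 Cells (250 per well) received 23 nL compound or DMSO by pin tool and were kept 48 hr at 37 C, 5% CO2. Nuclei were then stained with Hoechst for 40 min and scanned for DNA content.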
# Potency is the fitted concentration of half-maximal effect.
SMILES,Potency,re-replication activation
O=C(COC(=O)c1ccc2c(c1)C(=O)N(c1cccc3ncccc13)C2=O)c1ccc(Cl)cc1,"inconclusive: 25.9 µM [activator, single point]",
N#Cc1nc(Cc2cccc3ccccc23)oc1NCCN1CCOCC1,"inconclusive: 1.58 µM [activator, partial curve, poor fit]",
Cc1ccsc1C(=O)OCC(=O)NCc1ccc(Cl)cc1,"inconclusive: 23.1 µM [activator, single point]",
COc1nc(Nc2ccccc2F)nc(OC)n1,"inconclusive: 25.9 µM [activator, single point]",
Cc1ccc(NC(=O)Cn2c(=O)c(C)nc3ccccc32)cc1,,inconclusive: 39.2% [activator]
Cc1ccc(Nc2nc3c([nH]2)c(=O)n(C)c(=O)n3C)cc1,"inconclusive: 29.1 µM [activator, single point]",
O=C(c1ccc(C(F)(F)F)cc1)N1CCC(=O)N(C(COCc2ccccc2)Cc2ccccc2)CC1 (stereo unspecified),"inconclusive: 16.4 µM [activator, partial curve, poor fit]",
COC(=O)c1ccc(NC(=O)CN(C)Cc2cccc(F)c2)cc1,"inconclusive: 6.51 µM [activator, full curve, poor fit]",
CSc1ccc(S(=O)(=O)NCC(=O)OCC(=O)N(C)CC(=O)Nc2ccc(F)cc2)cc1[N+](=O)[O-],,inactive: 3.03%
CCOC(=O)c1[nH]c2ccc(F)cc2c1NC(=O)CN1CCN(C/C=C/c2ccccc2)CC1,"inconclusive: 25.9 µM [activator, single point]",
COc1ccccc1-c1nc2ccccc2nc1-c1ccccc1OC,"inconclusive: 6.51 µM [activator, single point]",
C/C(=N\NC(=O)c1cc(-c2ccc(C)s2)[nH]n1)c1ccncc1,"inconclusive: 29.1 µM [activator, partial curve, poor fit]",
O=C(Nc1cccc(Cl)c1N1CCCC1)c1ccco1,"inconclusive: 20.6 µM [activator, single point]",
CCCC1CCC(c2ccc(C(=O)NN)cc2)CC1 (stereo unspecified),"inconclusive: 29.1 µM [activator, single point]",
CC1CCCCN1C(=O)c1cccc(NC2=C(Cl)C(=O)N(Cc3ccccc3)C2=O)c1 (stereo unspecified),"inconclusive: 29.1 µM [activator, partial curve, poor fit]",
O=C(COC(=O)c1c[nH]c2ccccc12)Nc1ccc(F)cc1,"inconclusive: 18.4 µM [activator, single point]",
N#CCCn1c(O)c(N=NC(=O)CNC(=O)c2cccs2)c2ccccc21,,inactive: -7.39%
Cc1ccc(C(=O)N2CCN(c3ccc(NC(=O)c4ccc5c(c4)OCCO5)cc3)CC2)cc1,,inactive: -0.0544%
COc1ccc2[nH]c3c(NCCCOC(C)C)ncnc3c2c1,"inconclusive: 29.1 µM [activator, single point]",
CCn1c(Cn2nnc(-c3ccccc3)n2)nnc1SCC(=O)N1CCOCC1,,inactive: -11.1%
CCOC(=O)CSc1nc(C)c2ccc(C)cc2n1,,inactive: -26%
COc1ccc(-c2cc(C(=O)N3CCN(c4ncccn4)CC3)c3ccccc3n2)cc1,,inactive: 1.54%
Cc1cccc(Nc2nc(N)c([N+](=O)[O-])c(N3CCC(C)CC3)n2)c1,"inconclusive: 29.1 µM [activator, partial curve, poor fit]",
O=C(CCC(=O)N1CCCc2ccccc21)N1CCN(S(=O)(=O)c2ccccc2)CC1,,inactive: 24.1%

SMILES,Potency,re-replication activation
Cc1ccc(N(CC(O)COCc2ccco2)S(=O)(=O)c2ccc(C)cc2)cc1 (stereo unspecified),"inconclusive: 20.6 µM [activator, single point]",
COc1ccc2c(C)cc(N3CCCCCC3)nc2c1,"inconclusive: 20.6 µM [activator, single point]",
COCCNC(=O)CN(C(=O)CCC(=O)Nc1ccccn1)c1ccccc1F,"inconclusive: 3.26 µM [activator, partial curve, poor fit]",
CCOc1ccc(OCc2cccc(C(=O)N(CC)CC)c2)cc1,"inconclusive: 18.4 µM [activator, single point]",
Cc1ccc(CS(=O)(=O)CCC(=O)NCc2cccs2)cc1,"inconclusive: 3.26 µM [activator, single point]",
CCc1ccc(CCC(=O)Nc2ccc(Br)cc2)o1,"inconclusive: 14.6 µM [activator, single point]",
OC(COc1ccc(Br)cc1)CN1CCN(c2ccccc2)CC1 (stereo unspecified),,inactive: 0.26%
COc1ccccc1NC(=O)c1cnc(SCC(=O)NCCc2ccccc2)n(C)c1=O,,inactive: 13.3%
C=C(C)Cn1c(=O)c2c(nc3n2CCCN3Cc2ccccc2)n(C)c1=O,"inconclusive: 6.51 µM [activator, single point]",
O=C(NCCc1csc(-c2ccccc2)n1)c1ccc(Br)o1,,inactive: 0.591%
Cc1ccc(N(C(=O)CNC(=O)c2ccco2)C(C(=O)NC2CCCCC2)c2cccnc2)c(C)c1 (stereo unspecified),"inconclusive: 5.17 µM [activator, partial curve, poor fit]",
COc1ccc(/C=C/C(=O)Nc2cc(C(F)(F)F)ccc2Cl)cc1OC,,inactive: -4.98%
Cc1cc(N2CCCCC2)nc2ccc(NC(=O)c3ccc(Br)o3)cc12,"inconclusive: 29.1 µM [activator, single point]",
CCOC(=O)C1CCN(S(=O)(=O)c2ccc3c(c2)CC(C)N3C(=O)C2CC2)CC1 (stereo unspecified),,inactive: 29%
Cc1ccc(O)c(C(=O)c2cnn(-c3ccccc3)c2)c1,"inconclusive: 20.6 µM [activator, single point]",
COC(=O)c1ccc(C)c(NC(=O)C2CC(=O)N(C3CCCC(C)C3C)C2)c1 (stereo unspecified),"inconclusive: 0.82 µM [activator, partial curve, poor fit]",
COc1cc(OC)c(NS(=O)(=O)c2cccc(C(=O)OCC(=O)NCC3CCCO3)c2)cc1Cl (stereo unspecified),"inconclusive: 0.231 µM [activator, single point]",
O=C(O)CC(c1ccccc1)N1C(=O)c2cccc([N+](=O)[O-])c2C1=O (stereo unspecified),,inactive: 0.229%
Cc1ccc(-c2nc3ccccc3s2)cc1NC(=S)NC(=O)c1cccc2ccccc12,,inactive: -5.43%
O=C(NCCNc1ccc(Cl)cc1[N+](=O)[O-])c1cccnc1,"inconclusive: 0.082 µM [activator, full curve, poor fit]",
COc1ccc(C(=O)C2CCCN(C(=O)c3ccc(C(C)=O)s3)C2)c(C)c1 (stereo unspecified),"inconclusive: 0.651 µM [activator, full curve, poor fit]",
CC(C)C(=O)NNC(=O)CN1CCN(c2nc(-c3ccccc3)cs2)CC1,,inactive: -0.653%
O=C(/C=C/c1ccccc1Cl)c1ccc(O)cc1,"inconclusive: 23.1 µM [activator, partial curve, poor fit]",
Cc1cc(C)nc(NC(=O)c2ccc(COc3ccccc3Cl)cc2)c1,,inactive: 12.7%

SMILES,Potency,re-replication activation
COc1ccc(OCC(O)CN2CCN(Cc3ccc4c(c3)OCO4)CC2)cc1 (stereo unspecified),,inactive: 0.0257%
O=S(=O)(NC1CCCC1)c1ccc(S(=O)(=O)N2CCCN(Cc3ccccc3)C2)cc1,"inconclusive: 29.1 µM [activator, single point]",
O=C(O)CC(NNC(=O)c1ccccc1)C(=O)Nc1cccc([N+](=O)[O-])c1 (stereo unspecified),,inactive: -8.19%
O=C1Cc2cc(NS(=O)(=O)c3ccc(Cl)cc3)cc3c2N1CCC3,"inconclusive: 32.6 µM [activator, single point]",
OC(Cc1cccnc1)c1ccccc1 (stereo unspecified),,inactive: 0.651%
Cc1ccc2oc(/N=C(\N)NC(=O)C3CC3)nc2c1,active: 9.2 µM,
COc1ccccc1NC(=O)C1=C(C)Nc2nc3ccccc3n2C1c1cccs1 (stereo unspecified),active: 4.11 µM,
CCc1ccc(CCC(=O)Nc2sc3c(c2C#N)CCCC3)o1,active: 3.26 µM,
O=C(Nc1nccs1)C(Br)C(Br)c1ccccc1 (stereo unspecified),"inconclusive: 29.1 µM [activator, single point]",
COc1ccc(-n2c(Cc3cccn3C)nnc2SCC(=O)Nc2ccc(C)cc2C)cc1,"inconclusive: 18.4 µM [activator, partial curve, poor fit]",
O=[N+]([O-])c1ccccc1S(=O)(=O)c1ccccc1[N+](=O)[O-],"inconclusive: 16.4 µM [activator, partial curve]",
CCCn1c2ccc(C)cc2c2n[nH]c(=S)nc21,active: 14.6 µM,
COc1ccc(NC(=S)NN(C)C(=S)Nc2ccc(OC)cc2)cc1,active: 3.66 µM,
COc1ccc(-n2c(C)cc(C(=O)CCl)c2C)cc1,active: 2.59 µM,
Cc1ccc2nc(/C(C#N)=C\c3ccc(Oc4ccc([N+](=O)[O-])cn4)cc3)[nH]c2c1,"inconclusive: 29.1 µM [activator, partial curve, poor fit]",
C/C(=N\Nc1ccccc1Cl)c1ccc(-n2ccnc2)cc1,,inactive: -7.76%
O=S(=O)(c1ccc(OC(F)(F)F)cc1)N1CCCC(N2CCOCC2)C1 (stereo unspecified),"inconclusive: 2.31 µM [activator, single point]",
CCOC(=O)N1CCN(Cc2nnc(-c3ccccc3Cl)o2)CC1,"inconclusive: 32.6 µM [activator, single point]",
Cc1ccc(NC(=O)C2CCCN2C(=O)NC2CCCCC2)c(C)c1 (stereo unspecified),,inactive: -5.26%
O=C(NC(=S)Nc1cc(-c2nc3ccccc3[nH]2)ccc1Cl)c1ccc2c(c1)OCO2,active: 5.8 µM,
O=C1NC[C@@H](c2ccccc2)OC(=O)[C@H](Cc2ccc(F)cc2)C/C=C\C[C@@H]1CC(=O)N(CCO)Cc1ccccc1,"inconclusive: 0.82 µM [activator, full curve, poor fit]",
O=C(/C=C/c1cccs1)NCc1ccc2c(c1)OCO2,,inactive: -3.44%
CCCNC(=O)c1ccc2c(=O)c(O)c(-c3ccc(Cl)c([N+](=O)[O-])c3)[nH]c2c1,"inconclusive: 1.3 µM [activator, full curve, poor fit]",

# Part of the list above in order of number of heavy atoms, ascending:
SMILES,Potency,re-replication activation
O=C(Nc1cccc(Cl)c1N1CCCC1)c1ccco1,"inconclusive: 20.6 µM [activator, single point]",
COc1ccccc1NC(=O)C1=C(C)Nc2nc3ccccc3n2C1c1cccs1 (stereo unspecified),active: 4.11 µM,
CC1CCCCN1C(=O)c1cccc(NC2=C(Cl)C(=O)N(Cc3ccccc3)C2=O)c1 (stereo unspecified),"inconclusive: 29.1 µM [activator, partial curve, poor fit]",
